The assay has as its target T1, Syngr3(fl)-HA (mouse) (UniProt Q8R191).
T1 sequence: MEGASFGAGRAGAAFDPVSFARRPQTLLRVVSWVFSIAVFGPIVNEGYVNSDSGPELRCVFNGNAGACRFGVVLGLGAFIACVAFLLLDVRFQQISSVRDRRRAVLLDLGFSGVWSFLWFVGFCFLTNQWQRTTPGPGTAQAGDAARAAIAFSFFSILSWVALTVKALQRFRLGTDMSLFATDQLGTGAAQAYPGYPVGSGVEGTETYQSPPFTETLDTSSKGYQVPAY
The assay is described as follows: co-IP; HEK293T cells transiently co-transfected; lysates precipitated with anti-HA, blotted with anti-HA and anti-EGFP (Figure 6C).

Chains of the proteins cited; added tags and fusions are not shown. Lines headed by an entry give the natural chain unless they say otherwise; changes in a name come on top.
UniProt Q64332: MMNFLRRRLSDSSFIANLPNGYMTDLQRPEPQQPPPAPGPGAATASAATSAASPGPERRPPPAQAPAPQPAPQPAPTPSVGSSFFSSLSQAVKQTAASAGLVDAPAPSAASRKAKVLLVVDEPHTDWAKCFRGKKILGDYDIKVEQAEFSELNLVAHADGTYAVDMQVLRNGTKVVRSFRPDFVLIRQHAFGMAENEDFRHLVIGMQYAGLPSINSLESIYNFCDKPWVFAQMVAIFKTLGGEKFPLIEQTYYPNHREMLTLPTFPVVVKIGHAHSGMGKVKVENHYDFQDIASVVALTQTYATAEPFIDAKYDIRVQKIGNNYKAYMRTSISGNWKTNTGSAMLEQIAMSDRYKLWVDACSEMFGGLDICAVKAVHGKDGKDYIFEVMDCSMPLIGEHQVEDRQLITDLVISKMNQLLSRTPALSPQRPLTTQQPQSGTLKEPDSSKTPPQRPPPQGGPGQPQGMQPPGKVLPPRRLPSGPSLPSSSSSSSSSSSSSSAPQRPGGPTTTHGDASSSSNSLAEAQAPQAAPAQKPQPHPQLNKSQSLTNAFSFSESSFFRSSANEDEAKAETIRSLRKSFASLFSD

Results are given in words; binding and its absence hold for the method and conditions named. In cells and extracts the contact can be indirect. Binding calls can cover weak binding; strength is not graded here. Tags and fused reporters may be left off the sequences shown.

For EGFP-Syn2a-ΔE (from UniProt Q64332), the binding result is recorded as “binds”. For EGFP-Syn2a-ΔH (from UniProt Q64332) the value was “no binding”.

The values above are taken from publication PMC10866652.
